Reference: PubChem BioAssay AID1259323 (Peter MacCallum Cancer Centre, 2017)
Assay: 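Kinases required for PAR2 signalling to open the TRPV4 channel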 (primary screen). Cells: human HEK293 cells stably carrying inducible TRPV4. Knock-down reagent: siRNA pool against human genes. Challenge: PAR2 activation; agonist identity and dose not given. Measured: 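Real-time Fura-2 calcium after PAR2 activation; early peak and later plateau each as % of mock-transfected wells on the plate, mean of two plates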. Direction: TRPV4 plateau calcium, % of mock: higher = stronger sustained TRPV4 calcium entry than mock; PAR2 peak calcium, % of mock: higher = stronger early PAR2 calcium response than mock. Active means: 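Active if plateau calcium is under 90% of mock and early peak calcium stays over 79% of mock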.
Shown is one part, drawn at random, of 715 deposited reagents. Of all reagents, 91 (13%) were called active. 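Active pools lower the sustained TRPV4 phase but spare the early PAR2 peak; PAR2 agonist and dose are not stated; pools repeat across wells.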 Unmarked entries are inactive. A reagent listed more than once was tested more than once; the source does not tell the runs apart. No sequences are given here. Not stated in the record: the amount of reagent, the time to read-out.

The first 11 entries, ahead of the listing:
no.	target	TRPV4 plateau calcium, % of mock	PAR2 peak calcium, % of mock
1	ITPKC	91.7	88.2
2	VRK1	105	106
3	GSK3B	94.3	89.8
4	SKAP1	87.5 (active)	86.4
5	PRKCB	110	103
6	SIK1	103	98.6
7	ETNK1	96.9	100
8	PAK4	96.3	92.8
9	ULK2	100	92.8
10	CRIM1	107	101
11	SBK1	118	109

The list itself, repeating the preview:
no.	target	TRPV4 plateau calcium, % of mock	PAR2 peak calcium, % of mock
1	ITPKC	91.7	88.2
2	VRK1	105	106
3	GSK3B	94.3	89.8
4	SKAP1	87.5 (active)	86.4
5	PRKCB	110	103
6	SIK1	103	98.6
7	ETNK1	96.9	100
8	PAK4	96.3	92.8
9	ULK2	100	92.8
10	CRIM1	107	101
11	SBK1	118	109
12	HUS1	95.9	99.3
13	BLK	105	107
14	STK32B	86.4 (active)	93.4
15	DMPK	109	100
16	SPHK2	107	104
17	ROR1	106	103
18	STK32C	100	98.7
19	GUCY2C	82.1 (active)	83.8
20	RET	99.1	101
21	ZAP70	109	102
22	PIK3C2A	87.2 (active)	92.9
23	MAP4K2	107	103
24	ALPK3	112	103
25	GRK5	94.5	97.6
26	PKMYT1	99.8	99.7
27	TAOK3	89.4 (active)	93.2
28	LRRK1	99.6	97.9
29	PFKL	102	104
30	ROS1	104	97.7
31	EIF2AK4	103	104
32	SNRK	95.7	98.3
33	NME5	96.7	93
34	HIPK2	98.2	97.2
35	PKLR	98.5	96.5
36	POMK	90.5	92.1
37	POMK	106	102
38	PLK3	92.8	94.9
39	PASK	99	95.8
40	PRKCD	76.3 (active)	80.6
41	CHUK	105	108
42	PIK3R1	112	107
43	EFNA5	113	106
44	MAST4	109	102
45	NUAK2	98.9	97.7
46	CSNK2B	104	96.5
47	TJP2	107	110
48	ANKK1	114	112
49	PRKCE	108	103
50	MAP3K7	109	96.4
51	CKS2	106	102
52	CLK1	113	104
53	PRKAB2	84.5 (active)	94.6
54	MAP3K13	105	102
55	MASTL	116	102
56	PI4K2A	103	97.6
57	COQ8B	89.2 (active)	99.5
58	MAP4K4	109	104
59	NME7	102	101
60	TWF2	86.3 (active)	87.3
61	TAOK1	96.6	97.9
62	PDK3	122	107
63	CERK	97.2	104
64	IRAK4	112	106
65	PLK2	106	106
66	MAPK12	87.7 (active)	94.3
67	IPPK	114	103
68	INSR	102	102
69	EFNA3	93.8	93.9
70	MYLK	98.6	99.7
71	CHKA	88.1 (active)	87.9
72	RPS6KA3	88.2 (active)	89.7
73	PRPS1L1	91.3	98.4
74	STRADA	86.7 (active)	93.8
75	PDK1	98.2	102
76	NRBP2	116	115
77	PSKH1	89.4 (active)	88.9
78	EPHA5	113	107
79	FER	93.9	89.1
80	KSR1	130	112
81	CDC42BPG	96.5	95.5
82	DGKQ	104	101
83	FLT4	126	108
84	TNIK	119	105
85	DGKH	109	104
86	TTK	86.7 (active)	89.3
87	MAGI2	102	100
88	PRKCG	101	105
89	EPHA7	99.3	97.8
90	CSNK1A1L	100	103
91	MERTK	91.9	101
92	STYK1	96.6	92.5
93	NUAK1	106	101
94	TEK	98.2	102
95	CAMKK1	108	102
96	CAMKK1	88.1 (active)	91.7
97	CLK2	95.1	95.8
98	CSNK1G2	98.6	97.6
99	NRBP1	88.2 (active)	95
100	TPK1	107	103
101	VRK3	93.1	99.6
102	TK2	101	98.2
103	CDK6	98.1	92.3
104	PGK1	108	104
105	GCK	77.4 (active)	79.4
106	EPHB3	98	101
107	CDKL1	87.7 (active)	90.7
